# Measured values taken from article PMC4947980 (Journal of Medicinal Chemistry, 2016).
# Tests used:
# [1] = Hydrolytic stability at pH 2, 7 and 12; assay type: physicochemical; details: percent remaining after a 4 h incubation at 37 °C
# [2] = Parallel artificial membrane permeability assay; assay type: in vitro ADME
# Plasma stability, mouse = details: 1 μg/mL, 37 °C, parent ion monitored
structure (smiles),measurement,setting,value
"CC1=C(C(=O)O)N2C(=O)[C@@H](NC(=O)[C@H](N)c3ccccc3)[C@H]2SC1 [cephalexin 4, cephalexin, reference compound]",pH 12 stability,[1],0.000%
same,PAMPA mean Pe,[2],<0.0001 ^a 10^–6 cm/s
same,stability in mouse plasma (time to complete transformation),"Plasma stability, mouse",stable
